# Laboratory results published in the M2OR odorant receptor database.
# Chains of the proteins cited; added tags and fusions are not shown. Lines headed by an entry give the natural chain unless they say otherwise; changes in a name come on top.
# UniProt P0C7N5: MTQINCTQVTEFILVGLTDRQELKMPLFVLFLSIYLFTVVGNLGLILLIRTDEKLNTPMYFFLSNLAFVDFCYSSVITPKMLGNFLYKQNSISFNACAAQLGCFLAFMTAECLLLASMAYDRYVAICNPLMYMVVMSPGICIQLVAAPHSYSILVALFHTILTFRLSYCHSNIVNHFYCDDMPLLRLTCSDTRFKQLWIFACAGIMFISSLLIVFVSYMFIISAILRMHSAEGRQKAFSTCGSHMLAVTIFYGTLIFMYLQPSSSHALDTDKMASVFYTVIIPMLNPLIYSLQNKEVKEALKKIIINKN
# Changes are numbered by the printed parent chain. Only a part is listed here, and it is no random draw. The calls were merged from several studies; some rest on single wells. The list shows a part of the results.
# Columns and labels:
# Settings in all cases: stereoisomer not certain
# OR8H3 = system: T1, OR8H3
# T1 sequence (whole entry): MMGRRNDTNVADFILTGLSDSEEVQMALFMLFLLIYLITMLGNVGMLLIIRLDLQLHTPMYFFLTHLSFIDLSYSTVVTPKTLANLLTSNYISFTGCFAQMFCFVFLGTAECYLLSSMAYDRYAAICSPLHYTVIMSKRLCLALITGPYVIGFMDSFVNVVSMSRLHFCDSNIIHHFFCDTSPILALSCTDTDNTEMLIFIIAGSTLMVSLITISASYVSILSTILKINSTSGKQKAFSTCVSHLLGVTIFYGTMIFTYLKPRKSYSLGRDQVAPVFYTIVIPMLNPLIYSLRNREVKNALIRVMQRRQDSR
# How it was run: (§1)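 Values were gathered from published papers (main text and supplementary material), with extra details requested from the original authors when needed, and checked for typos and inconsistencies. Each receptor–molecule pair is called responsive (active) if the original authors judged the measured signal statistically different from baseline, and non-responsive (inactive) otherwise. Assay methods varied by source, often transient mammalian cell-line luciferase assays. Recorded details include cell line, G-protein, co-transfected protein and tags.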
# OR8I2 = system: T2, OR8I2
# T2 sequence (whole entry): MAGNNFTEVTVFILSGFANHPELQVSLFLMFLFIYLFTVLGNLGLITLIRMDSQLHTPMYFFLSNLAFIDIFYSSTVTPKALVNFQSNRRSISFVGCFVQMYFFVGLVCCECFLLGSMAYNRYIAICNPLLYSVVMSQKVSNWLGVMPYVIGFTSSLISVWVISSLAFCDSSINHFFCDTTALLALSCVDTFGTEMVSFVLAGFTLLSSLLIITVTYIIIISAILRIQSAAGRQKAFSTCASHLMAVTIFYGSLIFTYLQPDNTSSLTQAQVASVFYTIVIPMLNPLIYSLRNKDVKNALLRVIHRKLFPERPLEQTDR
# How it was run: as §1
# OR8J1 = system: T3, OR8J1
# T3 sequence (whole entry): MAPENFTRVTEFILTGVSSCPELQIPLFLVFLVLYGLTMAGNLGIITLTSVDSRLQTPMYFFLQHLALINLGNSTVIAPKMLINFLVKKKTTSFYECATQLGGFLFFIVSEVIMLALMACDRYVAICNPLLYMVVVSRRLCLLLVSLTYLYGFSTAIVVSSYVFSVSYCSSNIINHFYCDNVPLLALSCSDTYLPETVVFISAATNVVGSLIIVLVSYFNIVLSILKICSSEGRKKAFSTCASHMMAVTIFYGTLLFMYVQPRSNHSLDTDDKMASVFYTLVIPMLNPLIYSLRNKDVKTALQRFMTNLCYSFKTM
# How it was run: as §1
# OR8J3 (Homo sapiens) = biological target: T4, OR8J3 (Homo sapiens) (UniProt Q8NGG0)
# T4 sequence (whole entry): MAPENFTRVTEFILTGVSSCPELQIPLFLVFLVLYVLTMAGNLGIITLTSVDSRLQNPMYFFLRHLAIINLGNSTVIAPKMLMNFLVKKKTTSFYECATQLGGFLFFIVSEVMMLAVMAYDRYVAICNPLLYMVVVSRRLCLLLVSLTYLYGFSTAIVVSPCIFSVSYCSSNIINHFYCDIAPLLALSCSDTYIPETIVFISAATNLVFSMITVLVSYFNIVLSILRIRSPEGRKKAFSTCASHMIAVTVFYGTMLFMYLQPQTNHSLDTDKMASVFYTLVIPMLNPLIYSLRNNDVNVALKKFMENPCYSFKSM
# How it was run: as §1
# OR8K1 (Homo sapiens) = biological target: T5, OR8K1 (Homo sapiens) (UniProt Q8NGG5)
# T5 sequence (whole entry): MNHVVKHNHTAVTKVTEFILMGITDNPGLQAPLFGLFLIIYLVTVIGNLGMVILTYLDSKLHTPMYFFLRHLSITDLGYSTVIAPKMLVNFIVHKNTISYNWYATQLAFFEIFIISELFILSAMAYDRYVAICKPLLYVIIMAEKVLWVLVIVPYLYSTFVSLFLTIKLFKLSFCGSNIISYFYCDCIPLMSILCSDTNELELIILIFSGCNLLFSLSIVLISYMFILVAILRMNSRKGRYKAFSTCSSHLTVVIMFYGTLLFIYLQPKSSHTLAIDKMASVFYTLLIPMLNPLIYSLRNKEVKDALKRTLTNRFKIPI
# How it was run: as §1
# OR8K3 = system: T6, OR8K3
# T6 sequence (whole entry): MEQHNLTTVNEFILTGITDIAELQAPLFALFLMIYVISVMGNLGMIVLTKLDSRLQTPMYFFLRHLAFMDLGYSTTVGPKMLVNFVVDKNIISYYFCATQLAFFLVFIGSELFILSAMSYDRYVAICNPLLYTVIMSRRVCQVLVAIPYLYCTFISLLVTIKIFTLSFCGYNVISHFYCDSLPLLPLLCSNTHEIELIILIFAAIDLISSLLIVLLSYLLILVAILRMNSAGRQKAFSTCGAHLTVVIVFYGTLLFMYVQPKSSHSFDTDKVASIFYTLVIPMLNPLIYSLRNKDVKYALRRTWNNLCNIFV
# How it was run: as §1
# OR8K5 = system: T7, OR8K5
# T7 sequence (whole entry): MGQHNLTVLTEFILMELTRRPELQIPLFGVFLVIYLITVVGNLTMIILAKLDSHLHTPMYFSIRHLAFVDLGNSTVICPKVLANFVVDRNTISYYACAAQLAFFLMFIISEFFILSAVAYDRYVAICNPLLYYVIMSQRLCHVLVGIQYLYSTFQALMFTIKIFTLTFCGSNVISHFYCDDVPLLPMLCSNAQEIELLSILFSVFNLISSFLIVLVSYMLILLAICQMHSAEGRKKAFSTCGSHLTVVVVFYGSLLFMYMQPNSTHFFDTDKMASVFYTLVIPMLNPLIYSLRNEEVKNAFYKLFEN
# How it was run: as §1
# OR8S1 = system: T8, OR8S1
# T8 sequence (whole entry): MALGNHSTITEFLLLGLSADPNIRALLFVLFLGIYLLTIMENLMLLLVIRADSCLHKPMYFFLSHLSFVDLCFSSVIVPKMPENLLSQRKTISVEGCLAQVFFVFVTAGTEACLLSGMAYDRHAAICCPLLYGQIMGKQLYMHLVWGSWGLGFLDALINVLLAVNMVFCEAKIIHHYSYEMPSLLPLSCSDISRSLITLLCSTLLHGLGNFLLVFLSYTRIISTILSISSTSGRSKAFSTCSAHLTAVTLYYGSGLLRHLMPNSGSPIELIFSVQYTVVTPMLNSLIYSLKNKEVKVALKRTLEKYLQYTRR
# How it was run: as §1
# OR8U1 = system: T9, OR8U1
# T9 sequence (whole entry): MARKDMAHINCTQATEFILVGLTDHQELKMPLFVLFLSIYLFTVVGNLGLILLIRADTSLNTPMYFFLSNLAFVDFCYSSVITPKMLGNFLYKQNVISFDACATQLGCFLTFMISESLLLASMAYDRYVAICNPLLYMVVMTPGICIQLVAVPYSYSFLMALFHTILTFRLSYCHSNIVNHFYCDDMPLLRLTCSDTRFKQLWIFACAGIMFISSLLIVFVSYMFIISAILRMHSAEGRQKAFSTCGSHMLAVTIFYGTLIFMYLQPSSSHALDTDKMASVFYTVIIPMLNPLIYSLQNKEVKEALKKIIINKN
# How it was run: as §1
# OR8U8 = system: T10, OR8U8
# T10 sequence (whole entry): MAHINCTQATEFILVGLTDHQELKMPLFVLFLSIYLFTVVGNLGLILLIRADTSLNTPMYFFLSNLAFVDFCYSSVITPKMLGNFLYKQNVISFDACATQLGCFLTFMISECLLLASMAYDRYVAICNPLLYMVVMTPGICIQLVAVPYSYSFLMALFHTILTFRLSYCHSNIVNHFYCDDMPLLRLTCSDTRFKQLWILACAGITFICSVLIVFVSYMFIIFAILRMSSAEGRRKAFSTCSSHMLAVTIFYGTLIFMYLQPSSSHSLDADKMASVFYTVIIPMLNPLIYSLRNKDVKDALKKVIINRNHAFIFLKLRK
# How it was run: as §1
# OR8H3 (Homo sapiens) = OR8H3 (Homo sapiens) (UniProt Q8N146)
# How it was run: as §1
# OR8I2 (Homo sapiens) = OR8I2 (Homo sapiens) (UniProt Q8N0Y5)
# How it was run: as §1
# OR8J1 (Homo sapiens) = OR8J1 (Homo sapiens) (UniProt Q8NGP2)
# How it was run: as §1
# OR8K3 (Homo sapiens) = OR8K3 (Homo sapiens) (UniProt Q8NH51)
# How it was run: as §1
# OR8K5 (Homo sapiens) = biological target: T11, OR8K5 (Homo sapiens) (UniProt Q8NH50)
# T11 sequence (whole entry): T7 sequence (whole entry) with A49T, V118M
# How it was run: as §1
# OR8S1 (Homo sapiens) = OR8S1 (Homo sapiens) (UniProt Q8NH09)
# How it was run: as §1
# OR8U1 (Homo sapiens) = OR8U1 (Homo sapiens) (UniProt Q8NH10)
# How it was run: as §1
# OR8U3 (Homo sapiens) = biological target: T12, OR8U3 (Homo sapiens) (UniProt Q8NH85)
# T12 sequence (whole entry): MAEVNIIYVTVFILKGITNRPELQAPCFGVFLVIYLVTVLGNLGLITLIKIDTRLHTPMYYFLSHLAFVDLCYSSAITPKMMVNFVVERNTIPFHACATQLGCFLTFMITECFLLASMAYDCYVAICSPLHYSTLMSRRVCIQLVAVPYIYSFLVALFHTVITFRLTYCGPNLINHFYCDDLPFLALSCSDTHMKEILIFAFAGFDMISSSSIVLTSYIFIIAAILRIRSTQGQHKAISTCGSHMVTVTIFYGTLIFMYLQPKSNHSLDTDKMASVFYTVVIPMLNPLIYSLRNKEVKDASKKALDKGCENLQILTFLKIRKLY
# How it was run: as §1
# OR8U8 (Homo sapiens) = OR8U8 (Homo sapiens) (UniProt P0C7N1)
# How it was run: as §1
# OR8U9 (Homo sapiens) = OR8U9 (Homo sapiens) (UniProt P0C7N5)
# How it was run: as §1
SMILES,odorant receptor agonist call (OR8H3),odorant receptor agonist call (OR8I2),odorant receptor agonist call (OR8J1),odorant receptor agonist call (OR8J3 (Homo sapiens)),odorant receptor agonist call (OR8K1 (Homo sapiens)),odorant receptor agonist call (OR8K3),odorant receptor agonist call (OR8K5),odorant receptor agonist call (OR8S1),odorant receptor agonist call (OR8U1),odorant receptor agonist call (OR8U8),odorant receptor agonist call (OR8H3 (Homo sapiens)),odorant receptor agonist call (OR8I2 (Homo sapiens)),odorant receptor agonist call (OR8J1 (Homo sapiens)),odorant receptor agonist call (OR8K3 (Homo sapiens)),odorant receptor agonist call (OR8K5 (Homo sapiens)),odorant receptor agonist call (OR8S1 (Homo sapiens)),odorant receptor agonist call (OR8U1 (Homo sapiens)),odorant receptor agonist call (OR8U3 (Homo sapiens)),odorant receptor agonist call (OR8U8 (Homo sapiens)),odorant receptor agonist call (OR8U9 (Homo sapiens))
C=CCc1ccc(OC(C)=O)c(OC)c1,inactive,inactive,inactive,inactive,inactive,inactive,inactive,inactive,inactive,inactive,,,,,,,,,,
CCCCCCCCCCC=O,inactive,inactive,inactive,inactive,inactive,inactive,inactive,inactive,inactive,inactive,,,,,,,,,,
COC(=O)c1ccccc1,inactive,inactive,inactive,inactive,inactive,inactive,inactive,inactive,inactive,inactive,,,,,,,,,,
c1cnccn1,inactive,inactive,inactive,inactive,inactive,inactive,inactive,inactive,inactive,inactive,,,,,,,,,,
O=CCc1ccccc1,inactive,inactive,inactive,inactive,inactive,inactive,inactive,inactive,inactive,inactive,,,,,,,,,,
COc1ccccc1O,inactive,inactive,inactive,inactive,inactive,inactive,inactive,inactive,inactive,inactive,,,,,,,,,,
CC1CCC(C(C)C)C(O)C1 (centres undefined),inactive,inactive,active,inactive,inactive,active,inactive,inactive,inactive,active,,,,,,,,,,
CCCCCCCCCC=O,inactive,inactive,inactive,inactive,inactive,inactive,inactive,inactive,inactive,inactive,,,,,,,,,,
CC12C=CCC1C1CCC3CC(=O)CCC3(C)C1CC2 (centres undefined),active,active,inactive,,inactive,active,active,inactive,inactive,inactive,inactive,inactive,inactive,inactive,inactive,inactive,inactive,inactive,inactive,inactive
CCCCCCCC=O,inactive,inactive,inactive,inactive,inactive,inactive,inactive,inactive,inactive,inactive,,,,,,,,,,
CC(C)CCC(=O)O,inactive,inactive,inactive,inactive,inactive,inactive,inactive,inactive,inactive,inactive,,,,,,,,,,
C=CCc1ccc(OC)c(OC)c1,inactive,inactive,inactive,inactive,inactive,inactive,inactive,inactive,inactive,inactive,,,,,,,,,,
